Experimental data: article PMC9637222, “Autoinducer-2 and bile salts induce c-di-GMP synthesis to repress the T3SS via a T3SS chaperone” (Nature Communications, 2022)
These are yes or no findings as the source states them, for the method shown. A result given as binding can be weak or reduced; the word gives no strength.

Chains of the proteins cited; added tags and fusions are not shown. Lines headed by an entry give the natural chain unless they say otherwise; changes in a name come on top.
UniProt Q56019: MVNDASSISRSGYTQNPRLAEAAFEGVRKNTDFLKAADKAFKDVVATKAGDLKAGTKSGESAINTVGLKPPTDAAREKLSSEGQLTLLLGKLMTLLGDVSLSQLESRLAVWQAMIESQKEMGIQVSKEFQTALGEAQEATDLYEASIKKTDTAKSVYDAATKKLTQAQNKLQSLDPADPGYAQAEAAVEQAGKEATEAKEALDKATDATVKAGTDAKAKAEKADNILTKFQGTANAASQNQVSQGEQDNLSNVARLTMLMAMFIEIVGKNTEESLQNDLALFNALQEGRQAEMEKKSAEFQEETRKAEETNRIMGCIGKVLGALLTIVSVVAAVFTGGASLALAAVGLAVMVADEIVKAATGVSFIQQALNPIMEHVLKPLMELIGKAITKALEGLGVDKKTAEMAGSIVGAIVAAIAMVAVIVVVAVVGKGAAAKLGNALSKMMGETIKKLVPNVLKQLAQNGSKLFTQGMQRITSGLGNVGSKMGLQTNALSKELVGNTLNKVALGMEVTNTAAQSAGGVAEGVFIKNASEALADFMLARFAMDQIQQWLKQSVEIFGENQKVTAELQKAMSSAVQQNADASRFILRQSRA
UniProt P69066: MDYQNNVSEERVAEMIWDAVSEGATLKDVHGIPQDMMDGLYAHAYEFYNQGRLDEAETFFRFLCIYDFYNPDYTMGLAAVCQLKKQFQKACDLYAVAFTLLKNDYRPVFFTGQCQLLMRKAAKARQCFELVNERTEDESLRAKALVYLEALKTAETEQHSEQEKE

Target: SipB (tag-free, purified) (S. Typhimurium) (UniProt Q56019)
Test: ITC; both purified

SicA (tag-free, purified) (from UniProt P69066 1-165)
binding: binds
